# Test results: the supplement of paper PMC8728848
# Some of the results follow.
# B1: FBG2 (Homo sapiens), Q9NRD1 (protein)
# chain: MDAPHSKAALDSINELPENILLELFTHVPARQLLLNCRLVCSLWRDLIDLMTLWKRKCLREGFITKDWDQPVADWKIFYFLRSLHRNLLRNPCAEEDMFAWQIDFNGGDRWKVESLPGAHGTDFPDPKVKKYFVTSYEMCLKSQLVDLVAEGYWEELLDTFRPDIVVKDWFAARADCGCTYQLKVQLASADYFVLASFEPPPVTIQQWNNATWTEVSYTFSDYPRGVRYILFQHGGRDTQYWAGWYGPRVTNSSIVVSPKMTRNQASSEAQPGQKHGQEEAAQSPYRAVVQIFPPPVTIQQWNNATWTEVSYTFSDYPRGVRYILFQHGGRDTQYWAGWYGPRVTNSSIVVSPKMTRNQASSEAQPGQKHGQEEAAQSPYRAVVQI
# How the values were obtained:
# Assay in all cases: glycan array binding signal (z-score within array); higher = stronger binding
# Conditions in all cases: glycan notation: IUPAC condensed, linker removed
# [1] = target: GlcNAc(b1-4)GlcNAc(b1-4)GlcNAc(b1-4)GlcNAc(b1-4)GlcNAc(b1-4)GlcNAc
# Method in brief: (§1)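 From the Consortium for Functional Glycomics database, 3228 arrays were curated, keeping only those whose protein sequence was available. Binding is given as a within-array Z-score averaged across arrays sharing a protein sequence and across linkers. Negative Z-scores can be read as non-binding.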
# [2] = target: GlcNAc(b1-4)[GlcNAc(b1-6)]GalNAc
# Method in brief: as §1
# [3] = target: GlcNAc(b1-6)Gal(b1-4)GlcNAc
# Method in brief: as §1
# [4] = target: GlcNAc(b1-6)GalNAc
# Method in brief: as §1
# [5] = target: Kdn(a2-3)Gal(b1-3)GlcNAc
# Method in brief: as §1
# [6] = target: Kdn(a2-3)Gal(b1-4)GlcNAc
# Method in brief: as §1
# [7] = target: Man(a1-2)Man(a1-2)Man(a1-3)Man
# Method in brief: as §1
# [8] = target: Man(a1-2)Man(a1-2)Man(a1-3)[Man(a1-2)Man(a1-3)[Man(a1-2)Man(a1-6)]Man(a1-6)]Man(b1-4)GlcNAc(b1-4)GlcNAc
# Method in brief: as §1
# [9] = target: Man(a1-2)Man(a1-2)Man(a1-3)[Man(a1-2)Man(a1-6)[Man(a1-3)]Man(a1-6)]Man(b1-4)GlcNAc(b1-4)GlcNAc
# Method in brief: as §1
# [10] = target: Man(a1-2)Man(a1-2)Man(a1-6)[Man(a1-3)]Man
# Method in brief: as §1
# [11] = target: Man(a1-2)Man(a1-3)Man
# Method in brief: as §1
# [12] = target: Man(a1-2)Man(a1-3)[Man(a1-2)Man(a1-6)]Man
# Method in brief: as §1
# [13] = target: Man(a1-2)Man(a1-3)[Man(a1-3)[Man(a1-6)]Man(a1-6)]Man(b1-4)GlcNAc(b1-4)GlcNAc
# Method in brief: as §1
# [14] = target: Man(a1-2)Man(a1-3)[Man(a1-6)]Man(a1-6)[Man(a1-2)Man(a1-3)]Man(b1-4)GlcNAc(b1-4)GlcNAc
# Method in brief: as §1
# [15] = target: Man(a1-3)[Man(a1-6)]Man
# Method in brief: as §1
# [16] = target: Man(a1-3)[Man(a1-6)]Man(a1-6)[Man(a1-3)]Man(b1-4)GlcNAc(b1-4)GlcNAc
# Method in brief: as §1
# [17] = target: Man(a1-3)[Man(a1-6)]Man(b1-4)GlcNAc(b1-4)GlcNAc
# Method in brief: as §1
# [18] = target: Man(b1-4)GlcNAc
# Method in brief: as §1
# [19] = target: Neu5Ac(a2-3)Gal
# Method in brief: as §1
# [20] = target: Neu5Ac(a2-3)Gal(b1-3)GalNAc
# Method in brief: as §1
# [21] = target: Neu5Ac(a2-3)Gal(b1-3)GalNAc(b1-3)Gal(a1-4)Gal(b1-4)Glc
# Method in brief: as §1
# [22] = target: Neu5Ac(a2-3)Gal(b1-3)GalNAc(b1-4)[Neu5Ac(a2-3)]Gal(b1-4)Glc
# Method in brief: as §1
# [23] = target: Neu5Ac(a2-3)Gal(b1-3)GalNAc6S
# Method in brief: as §1
# [24] = target: Neu5Ac(a2-3)Gal(b1-3)GlcNAc
# Method in brief: as §1
# [25] = target: Neu5Ac(a2-3)Gal(b1-3)GlcNAc(b1-3)Gal(b1-3)GlcNAc
# Method in brief: as §1
# [26] = target: Neu5Ac(a2-3)Gal(b1-3)GlcNAc(b1-3)Gal(b1-4)GlcNAc
# Method in brief: as §1
# [27] = target: Neu5Ac(a2-3)Gal(b1-3)GlcNAc6S
# Method in brief: as §1
# [28] = target: Neu5Ac(a2-3)Gal(b1-3)[Fuc(a1-4)]GlcNAc
# Method in brief: as §1
# [29] = target: Neu5Ac(a2-3)Gal(b1-3)[Fuc(a1-4)]GlcNAc(b1-3)Gal(b1-4)[Fuc(a1-3)]GlcNAc
# Method in brief: as §1
# [30] = target: Neu5Ac(a2-3)Gal(b1-3)[Neu5Ac(a2-3)Gal(b1-4)]GlcNAc
# Method in brief: as §1
# [31] = target: Neu5Ac(a2-3)Gal(b1-3)[Neu5Ac(a2-6)]GalNAc
# Method in brief: as §1
# [32] = target: Neu5Ac(a2-3)Gal(b1-4)Glc
# Method in brief: as §1
# [33] = target: Neu5Ac(a2-3)Gal(b1-4)GlcNAc
# Method in brief: as §1
# [34] = target: Neu5Ac(a2-3)Gal(b1-4)GlcNAc(b1-3)Gal(b1-3)GlcNAc
# Method in brief: as §1
# [35] = target: Neu5Ac(a2-3)Gal(b1-4)GlcNAc(b1-3)Gal(b1-4)GlcNAc
# Method in brief: as §1
# [36] = target: Neu5Ac(a2-3)Gal(b1-4)GlcNAc(b1-3)Gal(b1-4)GlcNAc(b1-3)Gal(b1-4)GlcNAc
# Method in brief: as §1
binder,measurement,setting,value
B1,glycan array binding signal (z-score),[1],0.185
same,glycan array binding signal (z-score),[2],-0.787
same,glycan array binding signal (z-score),[3],-0.91
same,glycan array binding signal (z-score),[4],-0.884
same,glycan array binding signal (z-score),[5],-0.553
same,glycan array binding signal (z-score),[6],-0.424
same,glycan array binding signal (z-score),[7],-0.639
same,glycan array binding signal (z-score),[8],3.27
same,glycan array binding signal (z-score),[9],3.69
same,glycan array binding signal (z-score),[10],-0.643
same,glycan array binding signal (z-score),[11],-0.732
same,glycan array binding signal (z-score),[12],-0.407
same,glycan array binding signal (z-score),[13],2.99
same,glycan array binding signal (z-score),[14],3.61
same,glycan array binding signal (z-score),[15],-0.683
same,glycan array binding signal (z-score),[16],4.08
same,glycan array binding signal (z-score),[17],3.91
same,glycan array binding signal (z-score),[18],-0.713
same,glycan array binding signal (z-score),[19],-0.674
same,glycan array binding signal (z-score),[20],-0.566
same,glycan array binding signal (z-score),[21],-0.559
same,glycan array binding signal (z-score),[22],-0.68
same,glycan array binding signal (z-score),[23],-0.328
same,glycan array binding signal (z-score),[24],-0.617
same,glycan array binding signal (z-score),[25],-0.304
same,glycan array binding signal (z-score),[26],-0.753
same,glycan array binding signal (z-score),[27],0.495
same,glycan array binding signal (z-score),[28],-0.752
same,glycan array binding signal (z-score),[29],0.115
same,glycan array binding signal (z-score),[30],-0.295
same,glycan array binding signal (z-score),[31],-0.275
same,glycan array binding signal (z-score),[32],-0.668
same,glycan array binding signal (z-score),[33],-0.789
same,glycan array binding signal (z-score),[34],-0.687
same,glycan array binding signal (z-score),[35],-0.901
same,glycan array binding signal (z-score),[36],-0.717

# 2 entries drawn at random from the list so far:
binder,measurement,setting,value
B1,glycan array binding signal (z-score),[14],3.61
same,glycan array binding signal (z-score),[33],-0.789
